According to paper PMC4144780, “MSRB7 reverses oxidation of GSTF2/3 to confer tolerance of Arabidopsis thaliana to oxidative stress” (Journal of Experimental Botany, 2014):
No constants are given. Whether binding was seen depends on the method and setting. For some of these results: In cells and extracts the contact can be indirect. Some entries that bind do so weakly or less than the wild type. Sequences can lack the tags named with a protein.

T1: MSRB7 cloned into pDEST22 (yeast two-hybrid) (A. thaliana) (UniProt Q8VY86)
T1 sequence: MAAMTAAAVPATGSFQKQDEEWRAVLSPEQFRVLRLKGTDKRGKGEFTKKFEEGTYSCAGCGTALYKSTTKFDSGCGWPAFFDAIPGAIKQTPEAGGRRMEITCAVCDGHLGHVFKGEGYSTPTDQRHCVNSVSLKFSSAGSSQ

T2: MSRB7 fused with the C-terminal fragment of yellow fluorescence protein (YFP) (A. thaliana) (UniProt Q8VY86)
T2 sequence: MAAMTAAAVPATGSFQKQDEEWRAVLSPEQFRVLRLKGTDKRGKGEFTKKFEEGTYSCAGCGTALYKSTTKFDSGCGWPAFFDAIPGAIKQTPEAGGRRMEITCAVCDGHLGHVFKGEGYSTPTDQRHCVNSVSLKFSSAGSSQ

T3: His–flag–MSRB7 (A. thaliana) (UniProt Q8VY86)
T3 sequence: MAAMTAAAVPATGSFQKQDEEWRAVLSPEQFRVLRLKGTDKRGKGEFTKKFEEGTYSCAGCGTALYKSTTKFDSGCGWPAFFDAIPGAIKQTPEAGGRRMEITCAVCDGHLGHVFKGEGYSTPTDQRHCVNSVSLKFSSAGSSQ


Experiments:
[1] = molecular target: T1, MSRB7 cloned into pDEST22 (yeast two-hybrid) (A. thaliana); assay: two-hybrid; ProQuest two-hybrid system, yeast strain MaV203; MSRB7 in pDEST22 as bait, GSTs in pDEST32 as prey; selection on SD –Leu–Trp and –Leu–Trp–His; three biological repeats
[2] = molecular target: T2, MSRB7 fused with the C-terminal fragment of yellow fluorescence protein (YFP) (A. thaliana); assay: split reporter; BiFC in A. thaliana protoplasts co-transformed with BiFC plasmids and the nuclear marker bZIP63–CFP; 16 h at room temperature under light; confocal microscopy
[3] = molecular target: T3, His–flag–MSRB7 (A. thaliana); assay: co-IP; recombinant His–flag–MSRB7 and oxidized His–GSTs incubated with rabbit anti-flag antibody in IP buffer (15 mM HEPES pH 7.4, 1 mM EDTA, 1 mM DTT, 10 mM MgCl2, 30 mM KCl) 1 h at room temperature; Protein G–Sepharose; blot with mouse anti-His antibody; both purified

Row | binding [1] | binding [2] | Binder | further results
1 | binds weakly | – | GSTF8 cloned into pDEST32 (yeast two-hybrid) (enzyme, UniProt Q96266 1-263) MGAIQARLPLFLSPPSIKHHTFLHSSSSNSNFKIRSNKSSSSSSSSIIMASIKVHGVPMSTATMRVLATLYEKDLQFELIPVDMRAGAHKQEAHLALNPFGQIPALEDGDLTLFESRAITQYLAEEYSEKGEKLISQDCKKVKATTNVWLQVEGQQFDPNASKLAFERVFKGMFGMTTDPAAVQELEGKLQKVLDVYEARLAKSEFLAGDSFTLADLHHLPAIHYLLGTDSKVLFDSRPKVSEWIKKISARPAWAKVIDLQKQ | –
2 | – | binds | GSTF2 fused with the N-terminal fragment of YFP (enzyme, UniProt P46422 1-212) MAGIKVFGHPASIATRRVLIALHEKNLDFELVHVELKDGEHKKEPFLSRNPFGQVPAFEDGDLKLFESRAITQYIAHRYENQGTNLLQTDSKNISQYAIMAIGMQVEDHQFDPVASKLAFEQIFKSIYGLTTDEAVVAEEEAKLAKVLDVYEARLKEFKYLAGETFTLTDLHHIPAIQYLLGTPTKKLFTERPRVNEWVAEITKRPASEKVQ | –
3 | binds weakly | – | GSTF2 cloned into pDEST32 (yeast two-hybrid) (enzyme, UniProt P46422 1-212) MAGIKVFGHPASIATRRVLIALHEKNLDFELVHVELKDGEHKKEPFLSRNPFGQVPAFEDGDLKLFESRAITQYIAHRYENQGTNLLQTDSKNISQYAIMAIGMQVEDHQFDPVASKLAFEQIFKSIYGLTTDEAVVAEEEAKLAKVLDVYEARLKEFKYLAGETFTLTDLHHIPAIQYLLGTPTKKLFTERPRVNEWVAEITKRPASEKVQ | –
4 | – | binds | GSTF3 fused with the N-terminal fragment of YFP (enzyme, UniProt Q9SLM6 1-212) MAGIKVFGHPASTSTRRVLIALHEKNLDFELVHVELKDGEHKKEPFLSRNPFGQVPAFEDGDLKLFESRAITQYIAHRYENQGTNLLPADSKNIAQYAIMSIGIQVEAHQFDPVASKLAWEQVFKFNYGLNTDQAVVAEEEAKLAKVLDVYEARLKEFKYLAGETFTLTDLHHIPVIQYLLGTPTKKLFTERPRVNEWVAEITKRPASEKVL | –
5 | binds weakly | – | GSTF3 cloned into pDEST32 (yeast two-hybrid) (enzyme, UniProt Q9SLM6 1-212) MAGIKVFGHPASTSTRRVLIALHEKNLDFELVHVELKDGEHKKEPFLSRNPFGQVPAFEDGDLKLFESRAITQYIAHRYENQGTNLLPADSKNIAQYAIMSIGIQVEAHQFDPVASKLAWEQVFKFNYGLNTDQAVVAEEEAKLAKVLDVYEARLKEFKYLAGETFTLTDLHHIPVIQYLLGTPTKKLFTERPRVNEWVAEITKRPASEKVL | –
6 | – | binds | GSTF8 fused with the N-terminal fragment of YFP (enzyme, UniProt Q96266 50-263) ASIKVHGVPMSTATMRVLATLYEKDLQFELIPVDMRAGAHKQEAHLALNPFGQIPALEDGDLTLFESRAITQYLAEEYSEKGEKLISQDCKKVKATTNVWLQVEGQQFDPNASKLAFERVFKGMFGMTTDPAAVQELEGKLQKVLDVYEARLAKSEFLAGDSFTLADLHHLPAIHYLLGTDSKVLFDSRPKVSEWIKKISARPAWAKVIDLQKQ | –
7 | – | – | oxidized His–GSTF8 (enzyme, UniProt Q96266 50-263, oxidized (positions not stated for this sample)) ASIKVHGVPMSTATMRVLATLYEKDLQFELIPVDMRAGAHKQEAHLALNPFGQIPALEDGDLTLFESRAITQYLAEEYSEKGEKLISQDCKKVKATTNVWLQVEGQQFDPNASKLAFERVFKGMFGMTTDPAAVQELEGKLQKVLDVYEARLAKSEFLAGDSFTLADLHHLPAIHYLLGTDSKVLFDSRPKVSEWIKKISARPAWAKVIDLQKQ | binding [3]: binds
